This note sets out measurements from article PMC10616125.

Protein sequences, listed by entry. Tags and fused reporters are not part of them.
UniProt P07355: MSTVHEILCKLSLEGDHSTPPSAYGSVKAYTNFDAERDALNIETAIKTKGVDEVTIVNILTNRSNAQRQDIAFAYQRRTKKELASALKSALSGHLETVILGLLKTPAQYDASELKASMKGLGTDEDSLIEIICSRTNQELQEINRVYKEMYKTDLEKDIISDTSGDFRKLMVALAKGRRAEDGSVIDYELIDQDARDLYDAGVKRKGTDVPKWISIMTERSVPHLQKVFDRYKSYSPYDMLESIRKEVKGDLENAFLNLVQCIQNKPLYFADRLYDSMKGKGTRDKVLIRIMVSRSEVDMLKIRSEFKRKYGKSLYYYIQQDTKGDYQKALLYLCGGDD
UniProt P68104: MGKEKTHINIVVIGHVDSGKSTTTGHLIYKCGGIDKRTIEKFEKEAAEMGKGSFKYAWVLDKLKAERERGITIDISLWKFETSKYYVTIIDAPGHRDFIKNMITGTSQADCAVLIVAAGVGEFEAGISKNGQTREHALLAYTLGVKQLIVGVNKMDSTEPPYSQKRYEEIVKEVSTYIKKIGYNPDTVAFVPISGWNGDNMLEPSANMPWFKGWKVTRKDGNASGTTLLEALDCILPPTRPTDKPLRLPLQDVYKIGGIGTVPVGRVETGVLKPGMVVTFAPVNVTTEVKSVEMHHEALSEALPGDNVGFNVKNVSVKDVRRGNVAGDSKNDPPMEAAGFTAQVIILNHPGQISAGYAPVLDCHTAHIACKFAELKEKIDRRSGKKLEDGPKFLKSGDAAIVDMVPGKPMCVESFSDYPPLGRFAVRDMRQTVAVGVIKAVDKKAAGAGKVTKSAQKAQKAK

Test [1] has as its target T1, membrane palmitoylated protein 2 (MPP2), wild type (human) (UniProt Q14168).
T1 sequence: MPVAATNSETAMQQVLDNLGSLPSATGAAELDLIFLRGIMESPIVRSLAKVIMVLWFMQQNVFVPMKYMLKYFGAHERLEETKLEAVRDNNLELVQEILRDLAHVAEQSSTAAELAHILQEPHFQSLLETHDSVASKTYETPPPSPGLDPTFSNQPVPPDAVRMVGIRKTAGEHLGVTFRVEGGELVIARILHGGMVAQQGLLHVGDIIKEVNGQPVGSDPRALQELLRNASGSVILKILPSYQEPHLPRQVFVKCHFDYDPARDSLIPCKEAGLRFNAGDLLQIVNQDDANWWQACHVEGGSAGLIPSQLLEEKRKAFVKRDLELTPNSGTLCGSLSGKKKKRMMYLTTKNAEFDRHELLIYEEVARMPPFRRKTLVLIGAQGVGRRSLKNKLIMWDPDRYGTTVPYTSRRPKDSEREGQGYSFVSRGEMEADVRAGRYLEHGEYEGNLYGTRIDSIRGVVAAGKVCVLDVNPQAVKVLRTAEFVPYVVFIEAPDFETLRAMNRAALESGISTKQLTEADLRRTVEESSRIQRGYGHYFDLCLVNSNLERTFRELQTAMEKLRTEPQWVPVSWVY
The experiment in a line: co-IP; cell lysate supernatant incubated with anti-MPP2 antibody at 4 °C overnight, protein A/G Sepharose beads, eluted with SDS loading buffer, western blotting. (A western blot detects proteins with antibodies after separation by electrophoresis.)

Test [2] addresses T2, membrane palmitoylated protein 2 (MPP2) p.K315N (human) (UniProt Q14168).
T2 sequence: T1 sequence with K315N
Described as above.

Positions count from the first letter of the chain named. These are yes or no findings as the source states them, for the method shown. Binding seen in cells or lysates may run through a third protein. Some results given as binding are weak or reduced against the parent protein; the word gives no strength.

Consider “annexin A2 (ANXA2) (from UniProt P07355 1-339)”, for which the binding entry in test [1] and in test [2] was “binds” throughout.
Consider EEF1A1 (from UniProt P68104 1-462), for which the binding result in test [1] was “binds”.
